Publication PMC6060233
No constants are given. Whether binding was seen depends on the method and setting. In cells and extracts the contact can be indirect. Some results given as binding are weak or reduced against the parent protein; the word gives no strength.

Chains of the proteins cited; added tags and fusions are not shown.
UniProt Q96SB3: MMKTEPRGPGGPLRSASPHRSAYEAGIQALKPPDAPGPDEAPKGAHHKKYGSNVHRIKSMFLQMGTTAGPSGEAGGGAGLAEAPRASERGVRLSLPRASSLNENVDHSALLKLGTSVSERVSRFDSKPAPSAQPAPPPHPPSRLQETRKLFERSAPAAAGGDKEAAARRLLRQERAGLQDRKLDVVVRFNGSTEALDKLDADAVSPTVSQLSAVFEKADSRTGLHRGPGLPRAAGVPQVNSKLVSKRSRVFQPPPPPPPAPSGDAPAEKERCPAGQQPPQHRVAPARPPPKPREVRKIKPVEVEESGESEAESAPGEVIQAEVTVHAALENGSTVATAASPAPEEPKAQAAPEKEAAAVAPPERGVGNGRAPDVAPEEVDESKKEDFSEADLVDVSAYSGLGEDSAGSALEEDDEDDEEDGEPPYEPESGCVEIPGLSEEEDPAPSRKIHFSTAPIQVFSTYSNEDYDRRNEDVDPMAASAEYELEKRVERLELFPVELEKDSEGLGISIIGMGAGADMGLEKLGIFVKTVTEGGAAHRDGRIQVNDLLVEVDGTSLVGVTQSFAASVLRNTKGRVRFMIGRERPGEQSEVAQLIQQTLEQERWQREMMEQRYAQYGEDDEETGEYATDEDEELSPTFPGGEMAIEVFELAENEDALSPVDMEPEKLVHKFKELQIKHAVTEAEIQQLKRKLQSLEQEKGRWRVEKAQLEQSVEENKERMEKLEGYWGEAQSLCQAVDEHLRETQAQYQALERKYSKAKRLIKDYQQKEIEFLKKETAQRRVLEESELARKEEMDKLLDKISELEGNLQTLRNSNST

Experiments:
Anion exchanger 2 = biological target: T1, Anion exchanger 2 (UniProt P04920); experiment: co-IP; HEK293T cells transfected with the indicated plasmids; lysis buffer 20 mM Tris, 150 mM NaCl, 2 mM EDTA, 1% Triton X-100; 1 ug/mL antibody 16 h at 4°C, protein G agarose beads; western blot; cells with or without BAPTA-AM (10 uM, 1 h) or nocodazole (10 uM, 1 h)
T1 sequence: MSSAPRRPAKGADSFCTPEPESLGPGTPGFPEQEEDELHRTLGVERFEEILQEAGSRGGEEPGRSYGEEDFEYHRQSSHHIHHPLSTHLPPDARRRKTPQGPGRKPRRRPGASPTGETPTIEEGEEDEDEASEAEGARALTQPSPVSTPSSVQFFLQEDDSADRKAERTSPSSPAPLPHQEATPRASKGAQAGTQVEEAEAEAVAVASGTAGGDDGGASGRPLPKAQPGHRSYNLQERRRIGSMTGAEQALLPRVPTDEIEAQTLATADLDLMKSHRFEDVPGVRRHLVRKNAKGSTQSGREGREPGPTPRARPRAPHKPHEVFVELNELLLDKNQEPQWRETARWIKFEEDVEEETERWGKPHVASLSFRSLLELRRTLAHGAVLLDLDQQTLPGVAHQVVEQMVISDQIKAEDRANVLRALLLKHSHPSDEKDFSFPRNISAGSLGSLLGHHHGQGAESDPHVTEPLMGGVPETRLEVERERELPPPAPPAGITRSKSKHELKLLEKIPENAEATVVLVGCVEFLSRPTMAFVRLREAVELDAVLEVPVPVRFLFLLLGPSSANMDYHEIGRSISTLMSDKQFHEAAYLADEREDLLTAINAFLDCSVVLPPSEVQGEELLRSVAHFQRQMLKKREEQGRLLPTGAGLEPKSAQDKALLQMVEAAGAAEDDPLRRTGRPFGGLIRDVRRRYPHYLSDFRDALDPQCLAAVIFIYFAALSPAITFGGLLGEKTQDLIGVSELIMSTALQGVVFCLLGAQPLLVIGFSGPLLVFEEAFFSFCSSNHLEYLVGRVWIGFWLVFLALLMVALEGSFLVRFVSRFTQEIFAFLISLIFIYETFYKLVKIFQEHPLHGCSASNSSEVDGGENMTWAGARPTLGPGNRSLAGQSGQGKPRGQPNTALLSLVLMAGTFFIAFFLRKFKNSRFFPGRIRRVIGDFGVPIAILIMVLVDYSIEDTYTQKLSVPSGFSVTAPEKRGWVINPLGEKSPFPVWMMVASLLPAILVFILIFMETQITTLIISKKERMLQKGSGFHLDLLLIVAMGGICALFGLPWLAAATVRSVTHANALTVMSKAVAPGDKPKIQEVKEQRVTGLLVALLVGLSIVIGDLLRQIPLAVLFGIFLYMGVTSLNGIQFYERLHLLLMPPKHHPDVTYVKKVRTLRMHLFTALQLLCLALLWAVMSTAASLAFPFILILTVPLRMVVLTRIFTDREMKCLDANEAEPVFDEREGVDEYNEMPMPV

Spinophilin = Spinophilin (UniProt Q96SB3); experiment: co-IP; Supplementary Figures S2B,C; transfected cells, cell line not stated; input blots as loading control

With Spinophilin (from UniProt Q96SB3 1-817) the binding (Anion exchanger 2) was “binds”.

B1: NBCe1-B (protein, UniProt Q9Y6R1 1-1079)
chain: MEDEAVLDRGASFLKHVCDEEEVEGHHTIYIGVHVPKSYRRRRRHKRKTGHKEKKEKERISENYSDKSDIENADESSSSILKPLISPAAERIRFILGEEDDSPAPPQLFTELDELLAVDGQEMEWKETARWIKFEEKVEQGGERWSKPHVATLSLHSLFELRTCMEKGSIMLDREASSLPQLVEMIVDHQIETGLLKPELKDKVTYTLLRKHRHQTKKSNLRSLADIGKTVSSASRMFTNPDNGSPAMTHRNLTSSSLNDISDKPEKDQLKNKFMKKLPRDAEASNVLVGEVDFLDTPFIAFVRLQQAVMLGALTEVPVPTRFLFILLGPKGKAKSYHEIGRAIATLMSDEVFHDIAYKAKDRHDLIAGIDEFLDEVIVLPPGEWDPAIRIEPPKSLPSSDKRKNMYSGGENVQMNGDTPHDGGHGGGGHGDCEELQRTGRFCGGLIKDIKRKAPFFASDFYDALNIQALSAILFIYLATVTNAITFGGLLGDATDNMQGVLESFLGTAVSGAIFCLFAGQPLTILSSTGPVLVFERLLFNFSKDNNFDYLEFRLWIGLWSAFLCLILVATDASFLVQYFTRFTEEGFSSLISFIFIYDAFKKMIKLADYYPINSNFKVGYNTLFSCTCVPPDPANISISNDTTLAPEYLPTMSSTDMYHNTTFDWAFLSKKECSKYGGNLVGNNCNFVPDITLMSFILFLGTYTSSMALKKFKTSPYFPTTARKLISDFAIILSILIFCVIDALVGVDTPKLIVPSEFKPTSPNRGWFVPPFGENPWWVCLAAAIPALLVTILIFMDQQITAVIVNRKEHKLKKGAGYHLDLFWVAILMVICSLMALPWYVAATVISIAHIDSLKMETETSAPGEQPKFLGVREQRVTGTLVFILTGLSVFMAPILKFIPMPVLYGVFLYMGVASLNGVQFMDRLKLLLMPLKHQPDFIYLRHVPLRRVHLFTFLQVLCLALLWILKSTVAAIIFPVMILALVAVRKGMDYLFSQHDLSFLDDVIPEKDKKKKEDEKKKKKKKGSLDSDNDDSDCPYSEKVPSIKIPMDIMEQQPFLSDSKPSDRERSPTFLERHTSC
With B1 the binding (Spinophilin) was “no binding”.

B2: NKCC1 (protein, UniProt P55011 1-1212)
chain: MEPRPTAPSSGAPGLAGVGETPSAAALAAARVELPGTAVPSVPEDAAPASRDGGGVRDEGPAAAGDGLGRPLGPTPSQSRFQVDLVSENAGRAAAAAAAAAAAAAAAGAGAGAKQTPADGEASGESEPAKGSEEAKGRFRVNFVDPAASSSAEDSLSDAAGVGVDGPNVSFQNGGDTVLSEGSSLHSGGGGGSGHHQHYYYDTHTNTYYLRTFGHNTMDAVPRIDHYRHTAAQLGEKLLRPSLAELHDELEKEPFEDGFANGEESTPTRDAVVTYTAESKGVVKFGWIKGVLVRCMLNIWGVMLFIRLSWIVGQAGIGLSVLVIMMATVVTTITGLSTSAIATNGFVRGGGAYYLISRSLGPEFGGAIGLIFAFANAVAVAMYVVGFAETVVELLKEHSILMIDEINDIRIIGAITVVILLGISVAGMEWEAKAQIVLLVILLLAIGDFVIGTFIPLESKKPKGFFGYKSEIFNENFGPDFREEETFFSVFAIFFPAATGILAGANISGDLADPQSAIPKGTLLAILITTLVYVGIAVSVGSCVVRDATGNVNDTIVTELTNCTSAACKLNFDFSSCESSPCSYGLMNNFQVMSMVSGFTPLISAGIFSATLSSALASLVSAPKIFQALCKDNIYPAFQMFAKGYGKNNEPLRGYILTFLIALGFILIAELNVIAPIISNFFLASYALINFSVFHASLAKSPGWRPAFKYYNMWISLLGAILCCIVMFVINWWAALLTYVIVLGLYIYVTYKKPDVNWGSSTQALTYLNALQHSIRLSGVEDHVKNFRPQCLVMTGAPNSRPALLHLVHDFTKNVGLMICGHVHMGPRRQAMKEMSIDQAKYQRWLIKNKMKAFYAPVHADDLREGAQYLMQAAGLGRMKPNTLVLGFKKDWLQADMRDVDMYINLFHDAFDIQYGVVVIRLKEGLDISHLQGQEELLSSQEKSPGTKDVVVSVEYSKKSDLDTSKPLSEKPITHKVEEEDGKTATQPLLKKESKGPIVPLNVADQKLLEASTQFQKKQGKNTIDVWWLFDDGGLTLLIPYLLTTKKKWKDCKIRVFIGGKINRIDHDRRAMATLLSKFRIDFSDIMVLGDINTKPKKENIIAFEEIIEPYRLHEDDKEQDIADKMKEDEPWRITDNELELYKTKTYRQIRLNELLKEHSSTANIIVMSLPVARKGAVSSALYMAWLEALSKDLPPILLVRGNHQSVLTFYS
For B2, the binding (Spinophilin) was “no binding”.
